Measurements from doi:10.1101/2021.10.02.462778.
These are yes or no findings as the source states them, for the method shown. For part of these data: Binding seen in cells or lysates may run through a third protein. Some entries that bind do so weakly or less than the wild type.

By UniProt entry, the sequences of proteins in these tests, tags left out. Where a name states a change or a piece, a line headed by the entry shows the natural chain unless it says otherwise. Residues count along the entry.
UniProt P13597, residues 28-485: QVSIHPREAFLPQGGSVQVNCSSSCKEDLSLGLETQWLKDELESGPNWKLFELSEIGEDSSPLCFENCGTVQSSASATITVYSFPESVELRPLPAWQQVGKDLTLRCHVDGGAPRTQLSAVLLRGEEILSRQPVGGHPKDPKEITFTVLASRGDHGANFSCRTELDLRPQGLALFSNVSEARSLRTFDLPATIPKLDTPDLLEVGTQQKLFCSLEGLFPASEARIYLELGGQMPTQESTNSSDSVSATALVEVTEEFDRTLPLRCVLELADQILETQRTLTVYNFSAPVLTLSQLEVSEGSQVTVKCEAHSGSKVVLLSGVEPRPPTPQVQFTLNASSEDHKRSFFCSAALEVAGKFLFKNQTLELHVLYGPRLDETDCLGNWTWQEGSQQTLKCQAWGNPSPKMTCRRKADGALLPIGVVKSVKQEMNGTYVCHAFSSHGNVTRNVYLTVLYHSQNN
UniProt P24063: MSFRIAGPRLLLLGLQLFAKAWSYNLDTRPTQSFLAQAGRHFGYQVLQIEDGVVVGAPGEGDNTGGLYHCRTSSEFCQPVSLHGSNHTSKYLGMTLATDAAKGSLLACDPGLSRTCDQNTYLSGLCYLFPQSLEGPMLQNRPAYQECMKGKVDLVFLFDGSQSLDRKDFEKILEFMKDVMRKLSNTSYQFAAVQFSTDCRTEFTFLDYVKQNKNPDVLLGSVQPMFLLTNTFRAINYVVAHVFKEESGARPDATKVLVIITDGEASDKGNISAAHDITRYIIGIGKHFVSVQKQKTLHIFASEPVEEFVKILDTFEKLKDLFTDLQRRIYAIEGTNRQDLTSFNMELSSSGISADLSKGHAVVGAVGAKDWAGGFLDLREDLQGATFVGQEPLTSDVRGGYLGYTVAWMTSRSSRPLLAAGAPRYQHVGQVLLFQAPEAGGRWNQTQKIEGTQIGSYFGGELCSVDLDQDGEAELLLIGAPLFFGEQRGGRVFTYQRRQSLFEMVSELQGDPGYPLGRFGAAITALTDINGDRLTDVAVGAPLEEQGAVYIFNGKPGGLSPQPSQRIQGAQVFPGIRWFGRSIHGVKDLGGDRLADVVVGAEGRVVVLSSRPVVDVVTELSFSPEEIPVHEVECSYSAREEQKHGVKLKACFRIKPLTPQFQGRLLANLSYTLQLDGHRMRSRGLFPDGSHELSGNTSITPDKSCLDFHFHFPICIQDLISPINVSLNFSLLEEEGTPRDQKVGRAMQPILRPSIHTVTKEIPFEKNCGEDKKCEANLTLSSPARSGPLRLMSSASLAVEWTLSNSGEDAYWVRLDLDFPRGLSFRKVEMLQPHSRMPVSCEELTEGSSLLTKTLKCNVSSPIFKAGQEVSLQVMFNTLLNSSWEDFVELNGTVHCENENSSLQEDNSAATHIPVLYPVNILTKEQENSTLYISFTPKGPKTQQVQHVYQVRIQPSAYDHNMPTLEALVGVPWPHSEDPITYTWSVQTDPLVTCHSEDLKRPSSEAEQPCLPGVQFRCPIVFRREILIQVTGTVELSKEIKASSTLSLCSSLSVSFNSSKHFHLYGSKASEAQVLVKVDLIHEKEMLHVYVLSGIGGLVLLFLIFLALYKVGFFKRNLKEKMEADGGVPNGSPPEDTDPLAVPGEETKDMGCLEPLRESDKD

Columns and labels:
[1] = target: extracellular domain of mouse ICAM-1 (a.a. 28-485, polyhistidine-tagged), biotinylated (mouse) (UniProt P13597); assay: FRET-based molecular tension probes
[2] = target: dimeric Fc-ICAM1 (UniProt P13597); assay: FRET-based molecular tension probes
[3] = target: extracellular domain of mouse ICAM-1 (a.a. 28-485, polyhistidine-tagged), biotinylated (mouse) (UniProt P13597); assay: confocal imaging of CTLs with fluorescent receptor on micropatterned ligand

| binding [1] | binding [2] | binding [3] | Substance |
| --- | --- | --- | --- |
| binds | binds |  | αLβ2 integrin LFA-1 (Lymphocyte function-associated antigen-1) (from UniProt P24063 24-1162; P11835 24-771) (receptor) |
|  |  | binds | LFA-1 with a fluorescent form of the LFA-1 α-chain (CD11a-YFP) (from UniProt P24063 24-1162; P11835 24-771) (receptor) |
